Reference: the supplement of paper PMC10382679
Single values of this set are uncertain.

B1: Rpb7; numbered along this chain (parent)
chain: MFFIKDLSLNITLHPSFFGPRMKQYLKTKLLEEVEGSCTGKFGYILCVLDYDNIDIQRGRILPTDGSAEFNVKYRAVVFKPFKGEVVDGTVVSCSQHGFEVQVGPMKVFVTKHLMPQDLTFNAGSNPPSYQSSEDVITIKSRIRVKIEGCISQVSSIHAIGSIKEDYLGAI

Tests used:
[1] = variants of: B1; test: log2 fold change of mutant abundance, UV-irradiated vs unirradiated; higher = more UV resistant (enriched after UV); conditions: with Saccharomyces cerevisiae rad7Δ rad26Δ; UV dose (J/m2): 10; genetic background: rad7Δ rad26Δ rpb7Δ + plasmid RPB7 library; outgrowth: 10 cell divisions
[2] = variants of: B1; test: NOISeq theta enrichment statistic, UV-irradiated vs unirradiated (dimensionless); higher = more UV resistant (enriched after UV); conditions: with Saccharomyces cerevisiae rad7Δ rad26Δ; UV dose (J/m2): 10; genetic background: rad7Δ rad26Δ rpb7Δ + plasmid RPB7 library; outgrowth: 10 cell divisions

Row | Variant | log2 fold change of mutant abundance [1] | NOISeq theta enrichment statistic [2]
1 | MFFIKDLSLNITLHPSFFGPRMKQYLKTKLLEEVEGSCTGKFGYILCVLDYINIDIQRGRILPTDGSAEFNVKYRAVVFKPFKGEVVDGTVVSCSQHGFEVQVGPMKVFVTKHLMPQDLTFNAGSNPPSYQSSEDVITIKSRIRVKIEGCISQVSSIHAIGSIKEDYLGAI [D52I] | -0.0142 | -0.016
2 | MFFIKDLSLNITLHPSFFGPRMKQYLKTKLLEEVEGSCTGKFGYILCVLDYKNIDIQRGRILPTDGSAEFNVKYRAVVFKPFKGEVVDGTVVSCSQHGFEVQVGPMKVFVTKHLMPQDLTFNAGSNPPSYQSSEDVITIKSRIRVKIEGCISQVSSIHAIGSIKEDYLGAI [D52K] | -0.247 | -0.123
3 | MFFIKDLSLNITLHPSFFGPRMKQYLKTKLLEEVEGSCTGKFGYILCVLDYLNIDIQRGRILPTDGSAEFNVKYRAVVFKPFKGEVVDGTVVSCSQHGFEVQVGPMKVFVTKHLMPQDLTFNAGSNPPSYQSSEDVITIKSRIRVKIEGCISQVSSIHAIGSIKEDYLGAI [D52L] | -0.0151 | -0.00816
4 | MFFIKDLSLNITLHPSFFGPRMKQYLKTKLLEEVEGSCTGKFGYILCVLDYNNIDIQRGRILPTDGSAEFNVKYRAVVFKPFKGEVVDGTVVSCSQHGFEVQVGPMKVFVTKHLMPQDLTFNAGSNPPSYQSSEDVITIKSRIRVKIEGCISQVSSIHAIGSIKEDYLGAI [D52N] | 0.207 | 0.371
5 | MFFIKDLSLNITLHPSFFGPRMKQYLKTKLLEEVEGSCTGKFGYILCVLDYSNIDIQRGRILPTDGSAEFNVKYRAVVFKPFKGEVVDGTVVSCSQHGFEVQVGPMKVFVTKHLMPQDLTFNAGSNPPSYQSSEDVITIKSRIRVKIEGCISQVSSIHAIGSIKEDYLGAI [D52S] | 0.739 | 0.559
6 | MFFIKDLSLNITLHPSFFGPRMKQYLKTKLLEEVEGSCTGKFGYILCVLDYVNIDIQRGRILPTDGSAEFNVKYRAVVFKPFKGEVVDGTVVSCSQHGFEVQVGPMKVFVTKHLMPQDLTFNAGSNPPSYQSSEDVITIKSRIRVKIEGCISQVSSIHAIGSIKEDYLGAI [D52V] | 0.064 | 0.293
7 | MFFIKDLSLNITLHPSFFGPRMKQYLKTKLLEEVEGSCTGKFGYILCVLDYYNIDIQRGRILPTDGSAEFNVKYRAVVFKPFKGEVVDGTVVSCSQHGFEVQVGPMKVFVTKHLMPQDLTFNAGSNPPSYQSSEDVITIKSRIRVKIEGCISQVSSIHAIGSIKEDYLGAI [D52Y] | -0.0231 | -0.0527
8 | MFFIKDLSLNITLHPSFFGPRMKQYLKTKLLEEVEGSCTGKFGYILCVLDYDCIDIQRGRILPTDGSAEFNVKYRAVVFKPFKGEVVDGTVVSCSQHGFEVQVGPMKVFVTKHLMPQDLTFNAGSNPPSYQSSEDVITIKSRIRVKIEGCISQVSSIHAIGSIKEDYLGAI [N53C] | 1.66 | 0.748
9 | MFFIKDLSLNITLHPSFFGPRMKQYLKTKLLEEVEGSCTGKFGYILCVLDYDDIDIQRGRILPTDGSAEFNVKYRAVVFKPFKGEVVDGTVVSCSQHGFEVQVGPMKVFVTKHLMPQDLTFNAGSNPPSYQSSEDVITIKSRIRVKIEGCISQVSSIHAIGSIKEDYLGAI [N53D] | 0.106 | 0.395
10 | MFFIKDLSLNITLHPSFFGPRMKQYLKTKLLEEVEGSCTGKFGYILCVLDYDFIDIQRGRILPTDGSAEFNVKYRAVVFKPFKGEVVDGTVVSCSQHGFEVQVGPMKVFVTKHLMPQDLTFNAGSNPPSYQSSEDVITIKSRIRVKIEGCISQVSSIHAIGSIKEDYLGAI [N53F] | 0.00203 | 0.00122
11 | MFFIKDLSLNITLHPSFFGPRMKQYLKTKLLEEVEGSCTGKFGYILCVLDYDHIDIQRGRILPTDGSAEFNVKYRAVVFKPFKGEVVDGTVVSCSQHGFEVQVGPMKVFVTKHLMPQDLTFNAGSNPPSYQSSEDVITIKSRIRVKIEGCISQVSSIHAIGSIKEDYLGAI [N53H] | -0.0811 | -0.125
12 | MFFIKDLSLNITLHPSFFGPRMKQYLKTKLLEEVEGSCTGKFGYILCVLDYDIIDIQRGRILPTDGSAEFNVKYRAVVFKPFKGEVVDGTVVSCSQHGFEVQVGPMKVFVTKHLMPQDLTFNAGSNPPSYQSSEDVITIKSRIRVKIEGCISQVSSIHAIGSIKEDYLGAI [N53I] | 0.308 | 1.49
13 | MFFIKDLSLNITLHPSFFGPRMKQYLKTKLLEEVEGSCTGKFGYILCVLDYDKIDIQRGRILPTDGSAEFNVKYRAVVFKPFKGEVVDGTVVSCSQHGFEVQVGPMKVFVTKHLMPQDLTFNAGSNPPSYQSSEDVITIKSRIRVKIEGCISQVSSIHAIGSIKEDYLGAI [N53K] | 0.104 | 0.36
14 | MFFIKDLSLNITLHPSFFGPRMKQYLKTKLLEEVEGSCTGKFGYILCVLDYDMIDIQRGRILPTDGSAEFNVKYRAVVFKPFKGEVVDGTVVSCSQHGFEVQVGPMKVFVTKHLMPQDLTFNAGSNPPSYQSSEDVITIKSRIRVKIEGCISQVSSIHAIGSIKEDYLGAI [N53M] | -0.155 | -0.082
15 | MFFIKDLSLNITLHPSFFGPRMKQYLKTKLLEEVEGSCTGKFGYILCVLDYDPIDIQRGRILPTDGSAEFNVKYRAVVFKPFKGEVVDGTVVSCSQHGFEVQVGPMKVFVTKHLMPQDLTFNAGSNPPSYQSSEDVITIKSRIRVKIEGCISQVSSIHAIGSIKEDYLGAI [N53P] | 0.179 | 0.123
16 | MFFIKDLSLNITLHPSFFGPRMKQYLKTKLLEEVEGSCTGKFGYILCVLDYDRIDIQRGRILPTDGSAEFNVKYRAVVFKPFKGEVVDGTVVSCSQHGFEVQVGPMKVFVTKHLMPQDLTFNAGSNPPSYQSSEDVITIKSRIRVKIEGCISQVSSIHAIGSIKEDYLGAI [N53R] | 0.848 | 0.525
17 | MFFIKDLSLNITLHPSFFGPRMKQYLKTKLLEEVEGSCTGKFGYILCVLDYDSIDIQRGRILPTDGSAEFNVKYRAVVFKPFKGEVVDGTVVSCSQHGFEVQVGPMKVFVTKHLMPQDLTFNAGSNPPSYQSSEDVITIKSRIRVKIEGCISQVSSIHAIGSIKEDYLGAI [N53S] | 0.0653 | 0.18

Given with each value named: part of the list above
MFFIKDLSLNITLHPSFFGPRMKQYLKTKLLEEVEGSCTGKFGYILCVLDYDDIDIQRGRILPTDGSAEFNVKYRAVVFKPFKGEVVDGTVVSCSQHGFEVQVGPMKVFVTKHLMPQDLTFNAGSNPPSYQSSEDVITIKSRIRVKIEGCISQVSSIHAIGSIKEDYLGAI [N53D]
  log2 fold change of mutant abundance [1] = 0.106; NOISeq theta enrichment statistic [2] = 0.395
MFFIKDLSLNITLHPSFFGPRMKQYLKTKLLEEVEGSCTGKFGYILCVLDYDHIDIQRGRILPTDGSAEFNVKYRAVVFKPFKGEVVDGTVVSCSQHGFEVQVGPMKVFVTKHLMPQDLTFNAGSNPPSYQSSEDVITIKSRIRVKIEGCISQVSSIHAIGSIKEDYLGAI [N53H]
  log2 fold change of mutant abundance [1] = -0.0811; NOISeq theta enrichment statistic [2] = -0.125
